# According to the supplement of paper PMC10032668:
# By UniProt entry, the sequences of proteins in these tests, tags left out.
# ATP6V0D1, P61421, UniProt P61421, whole entry: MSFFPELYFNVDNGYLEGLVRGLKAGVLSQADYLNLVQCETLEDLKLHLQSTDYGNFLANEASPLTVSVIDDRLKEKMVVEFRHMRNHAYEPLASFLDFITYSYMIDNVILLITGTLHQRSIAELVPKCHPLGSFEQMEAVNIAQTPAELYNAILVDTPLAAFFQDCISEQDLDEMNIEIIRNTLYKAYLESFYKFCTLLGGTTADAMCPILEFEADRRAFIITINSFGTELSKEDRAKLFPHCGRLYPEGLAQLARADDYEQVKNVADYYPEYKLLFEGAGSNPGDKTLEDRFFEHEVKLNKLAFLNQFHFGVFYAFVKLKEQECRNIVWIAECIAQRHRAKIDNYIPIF
# DCTN5, Q9BTE1, UniProt Q9BTE1, whole entry: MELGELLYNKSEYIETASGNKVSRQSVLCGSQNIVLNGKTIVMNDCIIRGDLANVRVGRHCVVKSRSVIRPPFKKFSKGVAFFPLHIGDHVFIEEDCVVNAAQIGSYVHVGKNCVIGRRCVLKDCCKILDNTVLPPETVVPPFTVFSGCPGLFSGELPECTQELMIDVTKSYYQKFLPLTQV
# INTS7, Q9NVH2, UniProt Q9NVH2, whole entry: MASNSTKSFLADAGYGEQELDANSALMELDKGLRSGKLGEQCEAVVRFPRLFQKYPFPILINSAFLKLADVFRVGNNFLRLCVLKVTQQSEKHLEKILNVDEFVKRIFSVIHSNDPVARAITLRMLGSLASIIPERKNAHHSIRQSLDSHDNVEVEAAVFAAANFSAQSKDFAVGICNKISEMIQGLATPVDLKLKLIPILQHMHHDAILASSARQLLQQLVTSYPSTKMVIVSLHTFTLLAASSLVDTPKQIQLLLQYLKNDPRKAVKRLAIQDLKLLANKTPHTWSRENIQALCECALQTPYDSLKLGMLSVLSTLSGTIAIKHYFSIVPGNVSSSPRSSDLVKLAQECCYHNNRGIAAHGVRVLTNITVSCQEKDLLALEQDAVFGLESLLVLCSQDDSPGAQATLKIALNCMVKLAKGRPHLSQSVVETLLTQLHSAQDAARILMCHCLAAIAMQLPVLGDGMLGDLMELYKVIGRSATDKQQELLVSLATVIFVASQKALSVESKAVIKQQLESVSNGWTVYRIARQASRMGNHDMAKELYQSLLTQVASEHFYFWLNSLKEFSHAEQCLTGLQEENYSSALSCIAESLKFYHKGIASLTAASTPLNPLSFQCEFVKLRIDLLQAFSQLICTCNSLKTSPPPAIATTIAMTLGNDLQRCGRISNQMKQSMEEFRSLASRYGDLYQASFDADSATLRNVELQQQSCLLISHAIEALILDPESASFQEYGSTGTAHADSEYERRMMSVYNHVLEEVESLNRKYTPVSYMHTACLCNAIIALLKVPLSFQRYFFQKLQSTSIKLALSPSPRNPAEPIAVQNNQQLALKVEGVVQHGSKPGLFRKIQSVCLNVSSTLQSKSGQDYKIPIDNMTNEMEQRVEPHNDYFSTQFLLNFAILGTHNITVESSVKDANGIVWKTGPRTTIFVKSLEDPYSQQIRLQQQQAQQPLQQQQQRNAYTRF
# EIF4E, P06730, UniProt P06730, whole entry: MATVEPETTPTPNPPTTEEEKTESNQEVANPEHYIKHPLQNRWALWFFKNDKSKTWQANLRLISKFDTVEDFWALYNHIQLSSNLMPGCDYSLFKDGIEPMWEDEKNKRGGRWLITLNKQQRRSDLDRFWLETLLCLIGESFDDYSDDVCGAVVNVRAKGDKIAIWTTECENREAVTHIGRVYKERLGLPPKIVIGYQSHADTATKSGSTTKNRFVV
# FABP5, Q01469, UniProt Q01469, whole entry: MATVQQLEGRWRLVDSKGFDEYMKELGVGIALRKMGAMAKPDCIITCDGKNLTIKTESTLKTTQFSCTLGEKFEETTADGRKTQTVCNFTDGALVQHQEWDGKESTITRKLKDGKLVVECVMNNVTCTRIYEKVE
# HIST1H1D, P16402, UniProt P16402, whole entry: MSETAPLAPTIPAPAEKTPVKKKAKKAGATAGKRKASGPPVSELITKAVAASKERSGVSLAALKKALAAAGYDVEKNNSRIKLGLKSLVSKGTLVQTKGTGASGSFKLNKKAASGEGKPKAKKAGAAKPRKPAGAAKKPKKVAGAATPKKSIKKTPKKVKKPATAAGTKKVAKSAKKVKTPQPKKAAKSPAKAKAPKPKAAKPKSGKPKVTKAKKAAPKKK
# IGF2BP3, O00425, UniProt O00425, whole entry: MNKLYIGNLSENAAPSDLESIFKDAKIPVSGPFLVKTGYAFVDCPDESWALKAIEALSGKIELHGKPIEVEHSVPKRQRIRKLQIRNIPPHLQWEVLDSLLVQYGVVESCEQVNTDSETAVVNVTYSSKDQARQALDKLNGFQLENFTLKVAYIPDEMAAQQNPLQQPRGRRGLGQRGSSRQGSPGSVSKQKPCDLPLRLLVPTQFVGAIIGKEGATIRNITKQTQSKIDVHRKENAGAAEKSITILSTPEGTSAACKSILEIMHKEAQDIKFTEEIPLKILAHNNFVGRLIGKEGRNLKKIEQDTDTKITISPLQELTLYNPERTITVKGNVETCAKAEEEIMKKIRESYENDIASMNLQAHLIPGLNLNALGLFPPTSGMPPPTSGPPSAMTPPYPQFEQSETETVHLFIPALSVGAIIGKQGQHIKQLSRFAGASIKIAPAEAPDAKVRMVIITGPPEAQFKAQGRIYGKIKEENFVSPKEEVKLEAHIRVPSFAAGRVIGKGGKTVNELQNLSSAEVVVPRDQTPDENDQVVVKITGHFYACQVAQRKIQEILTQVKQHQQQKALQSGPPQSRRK
# SERPINA1, P01009, UniProt P01009, whole entry: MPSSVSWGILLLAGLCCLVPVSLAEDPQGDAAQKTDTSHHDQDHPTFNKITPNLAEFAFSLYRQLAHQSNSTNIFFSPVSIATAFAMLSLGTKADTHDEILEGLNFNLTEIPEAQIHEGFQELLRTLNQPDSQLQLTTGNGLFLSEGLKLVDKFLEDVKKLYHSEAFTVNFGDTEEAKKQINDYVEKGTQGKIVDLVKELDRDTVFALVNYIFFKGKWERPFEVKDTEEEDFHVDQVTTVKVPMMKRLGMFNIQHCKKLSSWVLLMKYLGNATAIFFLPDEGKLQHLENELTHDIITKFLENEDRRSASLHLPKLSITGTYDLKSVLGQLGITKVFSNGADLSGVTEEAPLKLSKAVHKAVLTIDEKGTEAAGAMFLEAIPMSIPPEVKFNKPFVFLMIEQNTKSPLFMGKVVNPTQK
# RBBP5, Q15291, UniProt Q15291, whole entry: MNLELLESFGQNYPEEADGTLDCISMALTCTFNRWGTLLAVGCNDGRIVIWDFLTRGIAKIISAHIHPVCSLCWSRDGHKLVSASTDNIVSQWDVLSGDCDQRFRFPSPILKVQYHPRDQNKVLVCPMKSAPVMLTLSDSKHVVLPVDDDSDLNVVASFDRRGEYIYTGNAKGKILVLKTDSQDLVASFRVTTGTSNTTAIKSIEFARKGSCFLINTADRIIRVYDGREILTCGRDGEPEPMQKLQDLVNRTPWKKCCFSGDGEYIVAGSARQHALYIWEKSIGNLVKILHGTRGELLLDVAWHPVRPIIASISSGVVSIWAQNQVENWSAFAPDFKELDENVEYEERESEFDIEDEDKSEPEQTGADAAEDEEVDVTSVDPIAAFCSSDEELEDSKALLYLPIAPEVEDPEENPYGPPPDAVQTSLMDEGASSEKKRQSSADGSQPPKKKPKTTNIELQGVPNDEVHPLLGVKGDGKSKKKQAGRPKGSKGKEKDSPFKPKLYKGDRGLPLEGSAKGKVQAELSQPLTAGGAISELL
# The other results are listed elsewhere or left out. The list holds hits alone, and they repeat only in part.
# What was measured:
# Assay in all cases: PRISMA enrichment of interactor (LFQ) in peptide spot vs all other peptide spots (log2 fold change); higher = stronger / more specific binding of the interactor to the peptide
# AP2B1, P63010 = target: AP2B1, P63010
# Procedure: (§1)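 PRISMA: 15-aa overlapping tiles (offset 8 aa) of 60 microproteins, plus SOS1/GLUT1 control peptides, were spot-synthesized on cellulose membranes in triplicate. Membranes were incubated with benzonase-treated HEK293T lysate, and bound proteins were identified by LC-MS/MS with LFQ. Enrichment is the log2 fold change of each protein in one spot versus all other spots. Only interactors passing the significance cutoff are listed.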
# AP2M1, Q96CW1 = target: AP2M1, Q96CW1
# Procedure: as §1
# ATP6V0D1, P61421 = target: ATP6V0D1, P61421
# Procedure: as §1
# BCKDK, O14874 = target: BCKDK, O14874
# Procedure: as §1
# DCTN5, Q9BTE1 = target: DCTN5, Q9BTE1
# Procedure: as §1
# EIF6, P56537 = target: EIF6, P56537
# Procedure: as §1
# EWSR1, Q01844 = target: EWSR1, Q01844
# Procedure: as §1
# FAM98B, Q52LJ0 = target: FAM98B, Q52LJ0
# Procedure: as §1
# FUS, P35637 = target: FUS, P35637
# Procedure: as §1
# HERC5, Q9UII4 = target: HERC5, Q9UII4
# Procedure: as §1
# HSPA4, P34932 = target: HSPA4, P34932
# Procedure: as §1
# INTS7, Q9NVH2 = target: INTS7, Q9NVH2
# Procedure: as §1
# MRTO4, Q9UKD2 = target: MRTO4, Q9UKD2
# Procedure: as §1
# PDP1, Q9P0J1 = target: PDP1, Q9P0J1
# Procedure: as §1
# [1] = substrate: PPIF, P30405
# Procedure: as §1
# RRS1, Q15050 = target: RRS1, Q15050
# Procedure: as §1
# SFPQ, P23246 = target: SFPQ, P23246
# Procedure: as §1
# STRAP, Q9Y3F4 = target: STRAP, Q9Y3F4
# Procedure: as §1
# TIAL1, Q01085 = target: TIAL1, Q01085
# Procedure: as §1
# AP3B1, O00203 = target: AP3B1, O00203
# Procedure: as §1
# DDX52, Q9Y2R4 = target: DDX52, Q9Y2R4
# Procedure: as §1
# EIF4E, P06730 = target: EIF4E, P06730
# Procedure: as §1
# FABP5, Q01469 = target: FABP5, Q01469
# Procedure: as §1
# FHOD1, Q9Y613 = target: FHOD1, Q9Y613
# Procedure: as §1
# GPD1L, Q8N335 = target: GPD1L, Q8N335
# Procedure: as §1
# GSTK1, Q9Y2Q3 = target: GSTK1, Q9Y2Q3
# Procedure: as §1
# HIST1H1D, P16402 = target: HIST1H1D, P16402
# Procedure: as §1
# IGF2BP3, O00425 = target: IGF2BP3, O00425
# Procedure: as §1
# MRPL27, Q9P0M9 = target: MRPL27, Q9P0M9
# Procedure: as §1
# NOL6, Q9H6R4 = target: NOL6, Q9H6R4
# Procedure: as §1
# PEX11B, O96011 = target: PEX11B, O96011
# Procedure: as §1
# POLR2A, P24928 = target: POLR2A, P24928
# Procedure: as §1
# RACGAP1, Q9H0H5 = target: RACGAP1, Q9H0H5
# Procedure: as §1
# RP9, Q8TA86 = target: RP9, Q8TA86
# Procedure: as §1
# RPP38, P78345 = target: RPP38, P78345
# Procedure: as §1
# RPUSD4, Q96CM3 = target: RPUSD4, Q96CM3
# Procedure: as §1
# SCRIB = target: SCRIB
# Procedure: as §1
# SERPINA1, P01009 = target: SERPINA1, P01009
# Procedure: as §1
# SMCHD1, A6NHR9 = target: SMCHD1, A6NHR9
# Procedure: as §1
# SMPD4, Q9NXE4 = target: SMPD4, Q9NXE4
# Procedure: as §1
# TMCO1, Q9UM00 = target: TMCO1, Q9UM00
# Procedure: as §1
# ZGRF1, Q86YA3 = target: ZGRF1, Q86YA3
# Procedure: as §1
# AP3S1, Q92572 = target: AP3S1, Q92572
# Procedure: as §1
# CDIPT, O14735 = target: CDIPT, O14735
# Procedure: as §1
# CEP290, O15078 = target: CEP290, O15078
# Procedure: as §1
# GNL2, Q13823 = target: GNL2, Q13823
# Procedure: as §1
# ODF2, Q5BJF6 = target: ODF2, Q5BJF6
# Procedure: as §1
# P3H1, Q32P28 = target: P3H1, Q32P28
# Procedure: as §1
# RBBP5, Q15291 = target: RBBP5, Q15291
# Procedure: as §1
# SAAL1, Q96ER3 = target: SAAL1, Q96ER3
# Procedure: as §1
# [2] = substrate: SPOP, O43791
# Procedure: as §1
# UBA1, P22314 = target: UBA1, P22314
# Procedure: as §1
binder,measurement,setting,value
TVRTCDRFWQTEPAL [PPP1R15A],PRISMA enrichment of interactor (log2),"AP2B1, P63010",5.34
same,PRISMA enrichment of interactor (log2),"AP2M1, Q96CW1",4.85
same,PRISMA enrichment of interactor (log2),"ATP6V0D1, P61421",7.2
same,PRISMA enrichment of interactor (log2),"BCKDK, O14874",4.68
same,PRISMA enrichment of interactor (log2),"DCTN5, Q9BTE1",4.94
same,PRISMA enrichment of interactor (log2),"EIF6, P56537",4.45
same,PRISMA enrichment of interactor (log2),"EWSR1, Q01844",5.83
same,PRISMA enrichment of interactor (log2),"FAM98B, Q52LJ0",7.02
same,PRISMA enrichment of interactor (log2),"FUS, P35637",5.93
same,PRISMA enrichment of interactor (log2),"HERC5, Q9UII4",4.28
same,PRISMA enrichment of interactor (log2),"HSPA4, P34932",5.18
same,PRISMA enrichment of interactor (log2),"INTS7, Q9NVH2",5.26
same,PRISMA enrichment of interactor (log2),"MRTO4, Q9UKD2",4.7
same,PRISMA enrichment of interactor (log2),"PDP1, Q9P0J1",4.83
same,PRISMA enrichment of interactor (log2),[1],5.26
same,PRISMA enrichment of interactor (log2),"RRS1, Q15050",5.17
same,PRISMA enrichment of interactor (log2),"SFPQ, P23246",4.81
same,PRISMA enrichment of interactor (log2),"STRAP, Q9Y3F4",6.35
same,PRISMA enrichment of interactor (log2),"TIAL1, Q01085",5.36
ASLHGARLSPLSRNI [IDI2-AS1],PRISMA enrichment of interactor (log2),"AP3B1, O00203",4.6
same,PRISMA enrichment of interactor (log2),"DDX52, Q9Y2R4",8.66
same,PRISMA enrichment of interactor (log2),"EIF4E, P06730",5.21
same,PRISMA enrichment of interactor (log2),"FABP5, Q01469",5.41
same,PRISMA enrichment of interactor (log2),"FHOD1, Q9Y613",4.17
same,PRISMA enrichment of interactor (log2),"GPD1L, Q8N335",6.95
same,PRISMA enrichment of interactor (log2),"GSTK1, Q9Y2Q3",4.45
same,PRISMA enrichment of interactor (log2),"HIST1H1D, P16402",5.94
same,PRISMA enrichment of interactor (log2),"IGF2BP3, O00425",5.87
same,PRISMA enrichment of interactor (log2),"MRPL27, Q9P0M9",8.85
same,PRISMA enrichment of interactor (log2),"NOL6, Q9H6R4",4.93
same,PRISMA enrichment of interactor (log2),"PEX11B, O96011",7.07
same,PRISMA enrichment of interactor (log2),"POLR2A, P24928",5.51
same,PRISMA enrichment of interactor (log2),"RACGAP1, Q9H0H5",4.04
same,PRISMA enrichment of interactor (log2),"RP9, Q8TA86",3.97
same,PRISMA enrichment of interactor (log2),"RPP38, P78345",4.11
same,PRISMA enrichment of interactor (log2),"RPUSD4, Q96CM3",5.09
same,PRISMA enrichment of interactor (log2),SCRIB,4.5
same,PRISMA enrichment of interactor (log2),"SERPINA1, P01009",4.24
same,PRISMA enrichment of interactor (log2),"SMCHD1, A6NHR9",5.04
same,PRISMA enrichment of interactor (log2),"SMPD4, Q9NXE4",4.54
same,PRISMA enrichment of interactor (log2),"TMCO1, Q9UM00",5.33
same,PRISMA enrichment of interactor (log2),"ZGRF1, Q86YA3",6.93
MVGQRLGRWRGEAGR [PARL],PRISMA enrichment of interactor (log2),"AP3S1, Q92572",4.84
same,PRISMA enrichment of interactor (log2),"CDIPT, O14735",6.79
same,PRISMA enrichment of interactor (log2),"CEP290, O15078",5.93
same,PRISMA enrichment of interactor (log2),"GNL2, Q13823",4.88
same,PRISMA enrichment of interactor (log2),"ODF2, Q5BJF6",6.65
same,PRISMA enrichment of interactor (log2),"P3H1, Q32P28",4.13
same,PRISMA enrichment of interactor (log2),"RBBP5, Q15291",5.74
same,PRISMA enrichment of interactor (log2),"SAAL1, Q96ER3",4.23
same,PRISMA enrichment of interactor (log2),[2],4.15
same,PRISMA enrichment of interactor (log2),"UBA1, P22314",6.56

# Quoted at random: two entries already listed.
binder,measurement,setting,value
ASLHGARLSPLSRNI [IDI2-AS1],PRISMA enrichment of interactor (log2),"PEX11B, O96011",7.07
same,PRISMA enrichment of interactor (log2),"MRPL27, Q9P0M9",8.85
